{"sequences": {"note": "By UniProt entry, the sequences of proteins in these tests, tags left out. Residues count along the entry.", "UniProt Q15365, whole entry": "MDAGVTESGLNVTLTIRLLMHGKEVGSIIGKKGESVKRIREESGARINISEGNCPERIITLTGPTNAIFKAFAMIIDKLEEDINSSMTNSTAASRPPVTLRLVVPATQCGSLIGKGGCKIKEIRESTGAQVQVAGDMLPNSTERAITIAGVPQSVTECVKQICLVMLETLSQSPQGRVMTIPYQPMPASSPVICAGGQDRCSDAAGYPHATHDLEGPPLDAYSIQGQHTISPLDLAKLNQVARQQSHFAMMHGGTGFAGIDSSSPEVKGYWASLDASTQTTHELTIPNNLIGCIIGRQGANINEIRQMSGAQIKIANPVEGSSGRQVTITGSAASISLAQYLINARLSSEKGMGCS", "UniProt Q15365, 1-169": "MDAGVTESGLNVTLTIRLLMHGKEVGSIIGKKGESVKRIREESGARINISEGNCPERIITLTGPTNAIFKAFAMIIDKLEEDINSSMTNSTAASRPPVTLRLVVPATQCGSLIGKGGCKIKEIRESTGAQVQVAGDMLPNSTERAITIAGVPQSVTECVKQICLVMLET", "UniProt Q15365, 269-356": "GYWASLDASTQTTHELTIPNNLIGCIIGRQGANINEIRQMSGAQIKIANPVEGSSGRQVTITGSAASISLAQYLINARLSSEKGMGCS"}, "source": "paper PMC12865031", "key": {"[1]": {"target": "PCBP1 (wild type) (UniProt Q15365)", "experiment": "MST", "conditions": ">2-fold weaker than pH 6.4, MST: 20 mM MES pH 6.4, phosphate pH 7.0 or Tris-Cl pH 8.0, 100 mM NaCl, 25 C, recombinant protein, protein details: His tag (pET-His1a), removed by TEV, label: 5'-Cy5 (EMSA, MST), folded or branched DNA"}, "[2]": {"target": "PCBP1 (wild type) (UniProt Q15365)", "experiment": "EMSA", "conditions": "pH 8.0, unfolded, single shift, more protein needed; EMSA: 20 mM Bis-Tris pH 6.4 or Tris-HCl pH 8.0, 100 mM NaCl, 0.25 mg/mL BSA, 25 C; recombinant protein; protein details: His tag (pET-His1a), removed by TEV; label: 5'-Cy5 (EMSA, MST); folded or branched DNA"}, "[3]": {"target": "PCBP1 KH1+2 (UniProt Q15365)", "experiment": "MST", "conditions": "no structural selectivity, MST: 20 mM MES pH 6.4, phosphate pH 7.0 or Tris-Cl pH 8.0, 100 mM NaCl, 25 C, recombinant protein, protein details: His tag (pET-His1a), removed by TEV, label: 5'-Cy5 (EMSA, MST), folded or branched DNA"}, "[4]": {"target": "PCBP1 KH3 (UniProt Q15365)", "experiment": "bromine footprinting", "conditions": "pH 6.4, no significant effect; recombinant protein; protein details: His tag (pET-His1a), removed by TEV; label: 3'-Cy5; folded or branched DNA"}}, "note": "The exact form of at least one protein or probe is not confirmed. For part of these data: No signal at the amounts used counts as a negative. For part of these data: The comparison behind a weaker result is the experiment's own reference, which may not be listed here. For part of these data: At least one verdict rests on a figure or table, not on a statement of the authors.", "data": [{"sequence": "CCCTAACCCTAACCCTAACCCT [hTeloC-iMfs]", "values": [{"measurement": "binding result", "setting": "[1]; pH 7.0, unfolded", "result": "binds more weakly"}, {"measurement": "binding result", "setting": "[1]; pH 8.0, unfolded", "result": "binds more weakly"}, {"measurement": "binding result", "setting": "[2]", "result": "binds more weakly"}]}, {"sequence": "AATCCCACCCCTCCCATCCCTT [cMYC-iMfs]", "values": [{"measurement": "binding result", "setting": "[1]; pH 7.0, unfolded", "result": "binds more weakly"}, {"measurement": "binding result", "setting": "[1]; pH 8.0, unfolded", "result": "binds more weakly"}, {"measurement": "binding result", "setting": "[3]; pH 7.0, unfolded", "result": "binds"}, {"measurement": "binding result", "setting": "[3]; pH 8.0, unfolded", "result": "binds"}, {"measurement": "binding result", "setting": "[2]", "result": "binds more weakly"}]}, {"sequence": "CAGCCCCGCTCCCGCCCCCTTCCTCCCGCGCCCGCCCCT [BCL2-iMfs]", "values": [{"measurement": "binding result", "setting": "[1]; pH 7.0, unfolded", "result": "binds more weakly"}, {"measurement": "binding result", "setting": "[1]; pH 8.0, unfolded", "result": "binds more weakly"}, {"measurement": "binding result", "setting": "[2]", "result": "binds more weakly"}]}, {"sequence": "AATCCCACCCCTCCCATCCCTTTTT [cMYC-iMfs-Br]", "values": [{"measurement": "binding result", "setting": "[4]", "result": "no binding"}]}, {"sequence": "TGTCCCCACACCCCTGTCCCCACACCCCTGT [ILPR-iMfs]", "values": [{"measurement": "binding result", "setting": "[1]; pH 7.0, unfolded", "result": "binds more weakly"}, {"measurement": "binding result", "setting": "[1]; pH 8.0, unfolded", "result": "binds more weakly"}, {"measurement": "binding result", "setting": "[2]", "result": "binds more weakly"}]}]}
